Test results: patent US20250361321A1 (Memorial Sloan Kettering, published 2025)
Results are given in words; binding and its absence hold for the method and conditions named. Some entries that bind do so weakly or less than the wild type.

Target: human MUC16 as expressed on MUC16+ cancer cell lines (OVCAR3, SKOV8, OVCA432) (human)
Assay: FACS on MUC16+ OVCAR3 cells (FIG. 6 legend)

binding: binds
B1: anti-MUC16 clone 8 BsAb (Clone 8/anti-CD3 bispecific antibody) (bispecific antibody)
chain: DIQLTQSPSAVSASVGDRVTITCRASQDVSKWLAWYQQKPGKAPRLLISAASGLQSWVPSRFSGSGSGTEFTLSISSLQPEDFATYYCQQANSFPWTFGQGTKVEIKRSRGGGGSGGGGSGGGGSLEMAQVQLQQWGAGLLKPSETLSLTCAVYGGSFSGYYWSWIRQPPGKGLEWIGEINHSGSTNYNPSLKSRVTISVDTSKNQFSLKLSSVTAADTAVYYCARQSYITDSWGQGTLVTVSSTSGGGGSDVQLVQSGAEVKKPGASVKVSCKASGYTFTRYTMHWVRQAPGQGLEWIGYINPSRGYTNYADSVKGRFTITTDKSTSTAYMELSSLRSEDTATYYCARYYDDHYCLDYWGQGTTVTVSSGEGTSTGSGGSGGSGGADDIVLTQSPATLSLSPGERATLSCRASQSVSYMNWYQQKPGKAPKRWIYDTSKVASGVPARFSGSGSGTDYSLTINSLEAEDAATYYCQQWSSNPLTFGGGTKVEIKHHHHHH
notes: It was secreted from CHO cells; also called clone 8 bispecific antibody; anti-MUC16 clone & BsAb
